Laboratory results: PubChem BioAssay AID1259308 (NCATS, 2017)

Screen: 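Candidate targets for better recombinant protein yield in mammalian cells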 (primary screen)
Cell system: human HEK293 embryonic kidney cells stably expressing firefly luciferase (HEK-CMV-Luc2-Hygro)
Knock-down reagent: single siRNA against human genes, 0.8 pmol siRNA per well
Timing: 72 h
Measurement: 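Luciferase light (ONE-Glo) measured on one replicate plate set and viability (CellTiter-Glo) on the other, scaled to a negative control siRNA, with robust z-scores and luciferase per cell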
Reading the numbers: total luciferase, z-score and total luciferase, % of control: higher = more reporter protein produced
Hit rule: 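Active when the median/MAD z-score for overall luciferase is greater than 3; a gene was taken forward for validation with new siRNAs if at least two of its three siRNAs passed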
Calls: active = raised luciferase; inactive = no rise
The deposit covers about 59,000 reagents; shown is a part drawn at random. Of all reagents, about 1,510 (2.6%) are marked active. 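Calls use total luciferase alone and ignore viability, so some active siRNAs may act by altering cell number.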 Entries without a mark were called inactive. Further read-outs or replicates are left out here.

{"gene knocked down":"SP8","PubChem SID":"SID160761767","total luciferase, z-score":1.47,"total luciferase, % of control":111}
{"gene knocked down":"SP8","PubChem SID":"SID160761768","total luciferase, z-score":1.49,"total luciferase, % of control":112}
{"gene knocked down":"SP8","PubChem SID":"SID160761770","total luciferase, z-score":1.78,"total luciferase, % of control":117}
{"gene knocked down":"ASNS","PubChem SID":"SID160720844","total luciferase, z-score":-2.93,"total luciferase, % of control":23.5}
{"gene knocked down":"ASNS","PubChem SID":"SID160720855","total luciferase, z-score":-3.37,"total luciferase, % of control":14.8}
{"gene knocked down":"ASNS","PubChem SID":"SID160720866","total luciferase, z-score":-2.98,"total luciferase, % of control":22.5}
{"gene knocked down":"PCOLCE2","PubChem SID":"SID160738093","total luciferase, z-score":"4.49 (active)","total luciferase, % of control":171}
{"gene knocked down":"PCOLCE2","PubChem SID":"SID160738094","total luciferase, z-score":-0.109,"total luciferase, % of control":79.7}
{"gene knocked down":"PCOLCE2","PubChem SID":"SID160738096","total luciferase, z-score":1.4,"total luciferase, % of control":110}
{"gene knocked down":"SMG7","PubChem SID":"SID160723349","total luciferase, z-score":0.332,"total luciferase, % of control":88.5}
{"gene knocked down":"SMG7","PubChem SID":"SID160723350","total luciferase, z-score":-2.15,"total luciferase, % of control":39}
{"gene knocked down":"SMG7","PubChem SID":"SID160723351","total luciferase, z-score":1.1,"total luciferase, % of control":104}
{"gene knocked down":"KIF21A","PubChem SID":"SID160776369","total luciferase, z-score":-0.192,"total luciferase, % of control":78.1}
{"gene knocked down":"KIF21A","PubChem SID":"SID160776380","total luciferase, z-score":-0.535,"total luciferase, % of control":71.3}
{"gene knocked down":"KIF21A","PubChem SID":"SID160776391","total luciferase, z-score":1.2,"total luciferase, % of control":106}
{"gene knocked down":"GABRB1","PubChem SID":"SID160768480","total luciferase, z-score":0.737,"total luciferase, % of control":96.5}
{"gene knocked down":"GABRB1","PubChem SID":"SID160768491","total luciferase, z-score":0.288,"total luciferase, % of control":87.6}
{"gene knocked down":"GABRB1","PubChem SID":"SID160768502","total luciferase, z-score":-0.457,"total luciferase, % of control":72.8}
{"gene knocked down":"ZG16","PubChem SID":"SID160756121","total luciferase, z-score":0.647,"total luciferase, % of control":94.7}
{"gene knocked down":"ZG16","PubChem SID":"SID160756122","total luciferase, z-score":-1.19,"total luciferase, % of control":58.3}
{"gene knocked down":"ZG16","PubChem SID":"SID160756123","total luciferase, z-score":0.398,"total luciferase, % of control":89.8}
{"gene knocked down":"ZG16","PubChem SID":"SID160771072","total luciferase, z-score":0.96,"total luciferase, % of control":101}
{"gene knocked down":"ZG16","PubChem SID":"SID160771073","total luciferase, z-score":0.662,"total luciferase, % of control":95.1}
{"gene knocked down":"ZG16","PubChem SID":"SID160771074","total luciferase, z-score":1.62,"total luciferase, % of control":114}
{"gene knocked down":"TFAP2E","PubChem SID":"SID160764248","total luciferase, z-score":1.03,"total luciferase, % of control":102}
{"gene knocked down":"TFAP2E","PubChem SID":"SID160764249","total luciferase, z-score":1.03,"total luciferase, % of control":102}
{"gene knocked down":"TFAP2E","PubChem SID":"SID160764250","total luciferase, z-score":-1.39,"total luciferase, % of control":54.1}
{"gene knocked down":"NOXRED1","PubChem SID":"SID160732390","total luciferase, z-score":-1.48,"total luciferase, % of control":52.5}
{"gene knocked down":"NOXRED1","PubChem SID":"SID160756031","total luciferase, z-score":0.394,"total luciferase, % of control":89.7}
{"gene knocked down":"NOXRED1","PubChem SID":"SID160756032","total luciferase, z-score":-0.106,"total luciferase, % of control":79.8}
{"gene knocked down":"LINC02877","PubChem SID":"SID160759207","total luciferase, z-score":2.77,"total luciferase, % of control":137}
{"gene knocked down":"LINC02877","PubChem SID":"SID160759208","total luciferase, z-score":-0.108,"total luciferase, % of control":79.7}
{"gene knocked down":"LINC02877","PubChem SID":"SID160759209","total luciferase, z-score":1.1,"total luciferase, % of control":104}

Reagents listed above called active (1):
{"gene knocked down":"PCOLCE2","PubChem SID":"SID160738093","total luciferase, z-score":"4.49 (active)","total luciferase, % of control":171}
